Laboratory results reported in patent CN117396514A.
These are yes or no findings as the source states them, for the method shown. Some binding calls cover weakened binding; strength is not graded here. Tags and fused reporters may be left off the sequences shown.

Tests used:
[1] = target: T1, 人MerTK, 过表达于CHO细胞 (CHO-huMerTK OE) (human) (UniProt Q12866); test: FACS on CHO-huMerTK OE cells
T1 sequence: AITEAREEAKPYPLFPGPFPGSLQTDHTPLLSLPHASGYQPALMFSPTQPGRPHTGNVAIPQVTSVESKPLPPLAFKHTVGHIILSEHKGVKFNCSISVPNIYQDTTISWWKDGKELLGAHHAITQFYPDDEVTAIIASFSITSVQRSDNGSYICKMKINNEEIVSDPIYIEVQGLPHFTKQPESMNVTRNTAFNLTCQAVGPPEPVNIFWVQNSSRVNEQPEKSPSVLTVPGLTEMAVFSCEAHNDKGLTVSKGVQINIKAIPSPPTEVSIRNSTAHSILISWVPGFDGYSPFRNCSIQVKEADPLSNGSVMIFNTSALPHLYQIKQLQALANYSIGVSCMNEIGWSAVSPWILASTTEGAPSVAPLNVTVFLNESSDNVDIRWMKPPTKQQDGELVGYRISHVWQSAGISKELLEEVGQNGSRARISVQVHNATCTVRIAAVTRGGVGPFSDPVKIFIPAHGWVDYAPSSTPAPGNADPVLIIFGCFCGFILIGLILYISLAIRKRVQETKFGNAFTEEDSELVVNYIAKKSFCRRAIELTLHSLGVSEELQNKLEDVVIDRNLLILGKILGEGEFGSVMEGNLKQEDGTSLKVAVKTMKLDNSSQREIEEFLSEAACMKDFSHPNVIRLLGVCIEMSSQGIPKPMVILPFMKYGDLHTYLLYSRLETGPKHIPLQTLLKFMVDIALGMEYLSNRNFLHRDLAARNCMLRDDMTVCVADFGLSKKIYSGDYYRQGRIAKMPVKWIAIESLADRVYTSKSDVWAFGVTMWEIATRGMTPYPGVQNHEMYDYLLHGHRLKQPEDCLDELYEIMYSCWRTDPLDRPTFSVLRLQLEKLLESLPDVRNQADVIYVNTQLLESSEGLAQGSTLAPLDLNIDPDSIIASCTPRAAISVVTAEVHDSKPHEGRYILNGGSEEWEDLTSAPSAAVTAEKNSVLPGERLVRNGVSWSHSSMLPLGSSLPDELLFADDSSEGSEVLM

[2] = target: T2, 人MerTK, M2c分化的人巨噬细胞上 (human) (UniProt Q12866); test: FACS on M2c differentiated human macrophages
T2 sequence: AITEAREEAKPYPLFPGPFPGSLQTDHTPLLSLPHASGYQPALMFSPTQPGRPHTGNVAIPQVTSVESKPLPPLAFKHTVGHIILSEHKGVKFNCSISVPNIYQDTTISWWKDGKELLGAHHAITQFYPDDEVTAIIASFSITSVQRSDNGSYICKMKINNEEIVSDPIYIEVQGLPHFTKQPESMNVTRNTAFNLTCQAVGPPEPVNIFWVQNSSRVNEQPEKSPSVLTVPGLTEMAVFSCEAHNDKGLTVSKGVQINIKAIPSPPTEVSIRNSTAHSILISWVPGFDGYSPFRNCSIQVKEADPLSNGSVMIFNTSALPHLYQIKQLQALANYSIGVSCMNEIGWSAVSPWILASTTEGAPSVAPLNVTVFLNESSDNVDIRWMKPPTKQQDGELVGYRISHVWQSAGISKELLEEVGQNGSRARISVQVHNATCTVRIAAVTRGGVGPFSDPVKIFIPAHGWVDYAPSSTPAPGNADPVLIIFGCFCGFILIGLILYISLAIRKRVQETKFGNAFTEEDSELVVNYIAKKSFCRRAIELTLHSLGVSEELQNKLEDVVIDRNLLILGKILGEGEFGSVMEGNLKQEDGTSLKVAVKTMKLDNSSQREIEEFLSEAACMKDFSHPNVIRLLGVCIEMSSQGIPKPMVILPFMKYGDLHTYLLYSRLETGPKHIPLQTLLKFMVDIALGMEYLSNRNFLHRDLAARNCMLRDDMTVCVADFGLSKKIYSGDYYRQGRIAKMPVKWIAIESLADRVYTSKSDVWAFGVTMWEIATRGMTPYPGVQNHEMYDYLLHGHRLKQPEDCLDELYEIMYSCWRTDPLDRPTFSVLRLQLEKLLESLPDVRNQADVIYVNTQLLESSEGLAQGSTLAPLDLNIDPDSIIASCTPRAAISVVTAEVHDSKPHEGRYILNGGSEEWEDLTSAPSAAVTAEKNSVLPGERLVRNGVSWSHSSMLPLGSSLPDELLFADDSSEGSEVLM

binding [1]: binds | binding [2]: binds
B1: 单价(单臂)抗MerTK抗体MTK-33.11 (Fc LALAPS) (antibody, V domains shown)
VH: QVQLVQSGAEVKKPGASVKVSCKASGYTFTSYWMHWVRQAPGQGLEWIGVIDPSDNYINYNQKFQGRVTMTRDTSTSTVYMELSSLRSEDTAVYYCAREAWTRGYFDYWGQGTLVTVSS
VL: DIQMTQSPSSLSASVGDRVTITCQASRSVRNTVAWYQQKPGKAPKLLIYYASNRYTGVPSRFSGSGSGTDFTFTISSLQPEDIATYYCQQDYRSPFTFGQGTKLEIK
modifications: Dylight650 conjugate in the FACS binding assay (site not stated)
